The assay can be described thus: qHTS Assay for Modulators of Lamin A Splicing. Particulars: HeLa LMNA splicing GFP/RFP minigene ratio, 48 h. The method, boiled down: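 Read-out is the ratio of GFP to DsRed2 object intensity, acquired by 488 nm laser-scanning cytometry on HeLa lamin A-EGFP minigene reporter cells. Compound incubation 48 hrs at 37 °C in Opti-MEM with 2% FBS; DMSO 0.5% final.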
On the technique in general: qHTS replaces the single test concentration by a dilution series.

[1] abbreviates: measured here: GFP splicing reporter channel.
Setting [2] is: measured here: RFP viability control channel.

Some of the results follow. Shown are side measurements of this screen, not its main read-out; they come without a call. The list favours compounds with an active or inconclusive main result. Words in brackets tell the shape of the fitted curve; partial curves, single points and poor fits give uncertain potencies.

Usually AC50 stands for the midpoint of the concentration-response curve, whichever way the signal moves. Consider `Cc1ccc(-c2noc(C3CCCN(C(=O)c4c(F)cccc4F)C3)n2)cc1` (stereo not given), for which the AC50 reads like this: under setting [1], 22.4 µM [rising, single point]; under setting [2], 20 µM [rising, single point].

In the case of `Cc1cc2nn(-c3ccccc3)nc2cc1NC(=O)c1cccs1`, the half-maximal activity concentration (AC50) by setting is: under setting [1], 11.2 µM [rising, partial curve, poor fit]; under setting [2], 17.8 µM [rising, partial curve].

As for `CCOC(=O)Cn1cc(C(=O)OC)c2ccccc21`, the AC50 under setting [2] is 0.0708 µM [falling, full curve, poor fit].

`COc1ccc(NC(=O)CCSc2ccc(C)cc2)cc1S(=O)(=O)Nc1ccccc1Cl`: under setting [2], the half-maximal activity concentration (AC50) is 17.8 µM [rising, partial curve, poor fit].

Consider `Cc1ccc(C(=O)NC(=S)Nc2ccccc2C(F)(F)F)cc1`, for which the concentration at half-maximal activity (AC50) was 11.2 µM [rising, partial curve] under setting [1] and 15.8 µM [rising, partial curve] under setting [2].

For the molecule `Cc1c(C(=O)OC2CCCC2C)[nH]c2c1C(=O)CCC2` (stereo not given), under setting [2], the concentration at half-maximal activity (AC50) is 14.1 µM [rising, single point].

Regarding `CCOC(=O)N1CCC(N2Cc3cccc(C(=O)NCc4ccc(OC)cc4)c3C2=O)CC1`, the AC50 is, setting by setting: under setting [1], 0.0562 µM [rising, full curve, poor fit]; under setting [2], 35.5 µM [rising, single point].

Turning to `C=CCn1c(CNc2ccc(C)cc2)nnc1SCC(=O)N/N=C/c1ccc(O)cc1O`, the concentration at half-maximal activity (AC50) under setting [2] was 12.6 µM [rising, single point].

Regarding `O=C(Nc1ccccc1F)c1c[nH]c(=O)[nH]c1=O`, the half-maximal activity concentration (AC50) under setting [1] was 11.2 µM [rising, partial curve].

On to `Cc1nc2c(C(=O)NCc3cccs3)cnn2c(C)c1Cc1ccccc1`, for which the half-maximal activity concentration (AC50) under setting [2] is 0.0251 µM [rising, full curve, poor fit].

As for `COc1ccc(Nc2nc(-c3ccccc3)nc3ccccc23)c(OC)c1`, the concentration at half-maximal activity (AC50) under setting [2] is 10 µM [rising, partial curve].

As to `O=C(Nc1ccc(Cn2cccn2)cc1)c1ccc(COc2ccccc2Br)cc1`, the AC50 under setting [1] is 3.16 µM [rising, full curve] and the half-maximal activity concentration (AC50) under setting [2] was 5.62 µM [rising, full curve].

For `COc1ccc(N(CC(=O)Nc2ccc(C)cc2C)S(=O)(=O)c2ccccc2[N+](=O)[O-])c(OC)c1`, the concentration at half-maximal activity (AC50) under setting [2] was 0.0282 µM [falling, full curve, poor fit].

As for `CCOc1ccc(C(=O)NCc2cccnc2)cc1`, the AC50 under setting [2] is 14.1 µM [rising, single point].

On to `COCCNc1nc(-c2ccc(N(C)C)cc2)nc2ccccc12`, for which the concentration at half-maximal activity (AC50) is 15.8 µM [rising, single point] under setting [1] and 35.5 µM [rising, single point] under setting [2].

Turning to `CC1Cc2nc(SCC(=O)Nc3ccc(F)cc3F)n(C)c(=O)c2S1` (stereo not given), the AC50 under setting [2] is 15.8 µM [rising, single point].

On to `O=C(C1CCN(c2ccc(N3CCOCC3)nn2)CC1)N1CCN(c2ccc(F)cc2)CC1`, for which the half-maximal activity concentration (AC50) under setting [1] is 35.5 µM [rising, single point].

Take `COC(=O)NC(NC(=S)Nc1ccc([N+](=O)[O-])cc1)C(Cl)(Cl)Cl` (stereo not given): the AC50 under setting [2] is 25.1 µM [rising, single point].

For `CC(C)Oc1ccc(NC(=O)c2ccncc2)cc1`, the concentration at half-maximal activity (AC50) reads like this: under setting [1], 2 µM [rising, partial curve]; under setting [2], 15.8 µM [rising, partial curve].

`CCCN(CC(=O)Nc1ccc(F)c(F)c1F)CC(=O)Nc1c(Cl)cccc1Cl`: under setting [2], the AC50 is 1 µM [rising, partial curve, poor fit].

For `O=C(c1ccc(Cl)cc1)c1coc2ccc(O)cc12`, the AC50 by setting is: under setting [1], 35.5 µM [rising, single point]; under setting [2], 35.5 µM [rising, single point].

In the case of `CCOCc1cn(CC(=O)c2ccc([N+](=O)[O-])cc2)c(C)nc1=N`, the AC50 under setting [2] is 14.1 µM [rising, single point].

For `O=S(=O)(c1ccccc1)c1cnn(-c2ccccc2)c1-c1ccc(Cl)cc1`, the AC50 was 20 µM [rising, single point] under setting [1] and 35.5 µM [rising, single point] under setting [2].

Regarding `CCOC(=O)c1cnc(-c2ccccc2)nc1-c1ccccc1`, the concentration at half-maximal activity (AC50) under setting [1] is 35.5 µM [falling, partial curve, poor fit] and the AC50 under setting [2] was 7.08 µM [falling, partial curve].

In the case of `CC1(C)Cc2ccccc2C(NN=C2CCCC2)=N1`, the concentration at half-maximal activity (AC50) under setting [2] is 0.00447 µM [falling, full curve, poor fit].

Consider `Cc1ccc(C)c(NC(=O)C(Sc2nc3ccccc3c(=O)n2CC(C)C)c2ccccc2)c1` (stereo not given), for which the AC50 under setting [2] is 6.31 µM [rising, single point].

Take `Cc1cccc(N2CCN(C(=O)COc3ccc4c(c3)CCC4)CC2)c1C`: under setting [2], the concentration at half-maximal activity (AC50) was 35.5 µM [rising, single point].

With `Cc1ccc([N+](=O)[O-])cc1S(=O)(=O)N1CCCCC1C(=O)O` (stereo not given), the AC50 under setting [1] was 2 µM [falling, partial curve, poor fit].

Regarding `CC1CCCCN1C(=O)c1ccc2c(c1)N(Cc1cccc(Cl)c1)C(=O)c1ccccc1S2=O` (stereo not given), the AC50 under setting [1] is 12.6 µM [rising, partial curve, poor fit] and the AC50 under setting [2] was 10 µM [rising, partial curve, poor fit].

Regarding `O=C(c1ccccc1CCc1ccccc1)N1CCN(c2ccccn2)CC1`, the AC50 is, setting by setting: under setting [1], 35.5 µM [rising, single point]; under setting [2], 35.5 µM [rising, single point].

For the molecule `COc1cc2c3c(c1)C(C)CC(C)(C)N3C(=O)C2=O` (stereo not given), under setting [1], the AC50 is 7.08 µM [falling, full curve, poor fit].

Consider `O=C(O)c1ccc(C2SCC(=O)N2Cc2ccco2)cc1` (stereo not given), for which the concentration at half-maximal activity (AC50) under setting [2] is 35.5 µM [rising, single point].

For `COc1ccc(C(C(O)C(=O)c2c[nH]c3ccccc23)N2CCN(c3ccccc3)CC2)cc1` (stereo not given), the concentration at half-maximal activity (AC50) under setting [2] was 14.1 µM [rising, partial curve].

Turning to `CCOc1ccc(-c2c(C)nn3c(C)c(C(=O)NCc4ccc(Cl)cc4)cnc23)cc1OCC`, the half-maximal activity concentration (AC50) under setting [2] was 8.91 µM [falling, partial curve].

As for `COc1ccccc1N1CCN(CC(O)COc2ccc3c(c2)CCC3)CC1` (stereo not given), the half-maximal activity concentration (AC50) by setting is: under setting [1], 12.6 µM [rising, single point]; under setting [2], 11.2 µM [rising, partial curve].

On to `COCCn1c(-c2cc(OC)c(OC)c(OC)c2)nc2oc3ccccc3c(=O)c2c1=O`, for which the half-maximal activity concentration (AC50) under setting [2] was 35.5 µM [rising, single point].

Consider `CCN(Cc1ccccc1)C(=O)CSc1nncn1C`, for which the AC50 under setting [2] is 0.0501 µM [falling, full curve].

As for `CCC(NC(=O)Nc1cc(Cl)ccc1OC)c1c(-n2cccc2)sc2c1CCN(C)C2` (stereo not given), the concentration at half-maximal activity (AC50) under setting [1] was 35.5 µM [falling, partial curve, poor fit] and the half-maximal activity concentration (AC50) under setting [2] was 35.5 µM [falling, partial curve].

Consider `COc1cc(/C=C2\C(=O)N(c3ccccc3)N=C2C)ccc1Oc1ccc([N+](=O)[O-])cc1[N+](=O)[O-]`, for which, under setting [2], the AC50 is 5.01 µM [rising, full curve].

Regarding `NNC(=O)CCN1CCN(C(c2ccccc2)c2ccccc2)CC1`, the AC50 under setting [2] is 0.158 µM [rising, full curve].

For `O=C(Nc1cccc2ccccc12)N1CCN(Cc2ccccc2)CC1`, the AC50 under setting [1] was 1.26 µM [rising, partial curve, poor fit] and the half-maximal activity concentration (AC50) under setting [2] was 35.5 µM [rising, single point].

For the molecule `N/C(=N\N=C\c1cccs1)SC1CC(=O)N(c2ccc(Br)cc2)C1=O` (stereo not given), the half-maximal activity concentration (AC50) under setting [1] is 1.58 µM [falling, full curve, poor fit] and the half-maximal activity concentration (AC50) under setting [2] was 0.794 µM [falling, full curve, poor fit].

On to `CCC(C)(C)n1nnnc1C(c1ccc(O)c(OC)c1)N1CCN(c2nc3ccccc3s2)CC1` (stereo not given), for which the AC50 under setting [2] is 35.5 µM [rising, single point].

As for `Cc1cccc(CSc2nc3cc(C(=O)NC4CCCC4)ccc3c(=O)n2Cc2ccccc2)c1`, the half-maximal activity concentration (AC50) under setting [2] was 35.5 µM [falling, partial curve, poor fit].

Consider `NC(=O)c1cccc(N)c1`, for which the AC50 was 0.0398 µM [falling, full curve, poor fit] under setting [1] and 0.00126 µM [falling, full curve] under setting [2].

Turning to `Cc1ccc(C)c(NC(=S)NNC(=O)c2csc(C(C)C)c2)c1`, the AC50 under setting [2] was 14.1 µM [rising, single point].

Turning to `N#CC1=C(N)Oc2n[nH]c(-c3cccs3)c2C1C1CCCCC1` (stereo not given), the half-maximal activity concentration (AC50) under setting [2] was 35.5 µM [falling, partial curve, poor fit].

As to `CCC(C)(C)n1nnnc1C(c1cc2ccc(OC)cc2[nH]c1=O)N1CCc2ccccc2C1` (stereo not given), under setting [2], the half-maximal activity concentration (AC50) is 35.5 µM [rising, single point].

`COc1ccc(C2C(C(C)=O)=C(C)N=c3s/c(=C\c4cc(C)n(C)c4C)c(=O)n32)c(OC)c1` (stereo not given): the half-maximal activity concentration (AC50) was 14.1 µM [falling, partial curve, poor fit] under setting [1] and 14.1 µM [falling, partial curve] under setting [2].

For `O=C(Nc1ccc(F)cc1)c1ccccc1NS(=O)(=O)N1CCCC1`, under setting [1], the AC50 is 0.355 µM [falling, full curve, poor fit].

For `Cc1ccc(O)c(-c2cc(-c3ccccc3[N+](=O)[O-])[nH]n2)c1`, under setting [2], the AC50 is 6.31 µM [rising, partial curve, poor fit].

`Cc1ccc(SC(C)c2nc(-c3ccncc3)no2)cc1` (stereo not given): the concentration at half-maximal activity (AC50) was 8.91 µM [rising, partial curve] under setting [1] and 14.1 µM [rising, partial curve] under setting [2].

As for `C=CCn1c(=O)[nH]c2cc(C(=O)N3CCN(c4ccc(C(C)=O)cc4)CC3)ccc2c1=O`, the half-maximal activity concentration (AC50) under setting [2] was 22.4 µM [rising, single point].

For `CCOc1ncccc1C(=O)Nc1nnc(C)s1`, under setting [1], the AC50 is 0.0112 µM [rising, full curve, poor fit].

As to `Nc1ccc2c(c1)COC2=O`, the AC50 runs as follows: under setting [1], 3.98 µM [falling, partial curve, poor fit]; under setting [2], 0.0891 µM [falling, full curve].

The values above are taken from PubChem BioAssay AID1487 (National Center for Advancing Translational Sciences (NCATS), 2009).
